Experimental data as given in the supplement of paper PMC10849652.
Some of the results follow.

By UniProt entry, the sequences of proteins in these tests, tags left out. Where a name states a change or a piece, a line headed by the entry shows the natural chain unless it says otherwise.
UniProt Q06587: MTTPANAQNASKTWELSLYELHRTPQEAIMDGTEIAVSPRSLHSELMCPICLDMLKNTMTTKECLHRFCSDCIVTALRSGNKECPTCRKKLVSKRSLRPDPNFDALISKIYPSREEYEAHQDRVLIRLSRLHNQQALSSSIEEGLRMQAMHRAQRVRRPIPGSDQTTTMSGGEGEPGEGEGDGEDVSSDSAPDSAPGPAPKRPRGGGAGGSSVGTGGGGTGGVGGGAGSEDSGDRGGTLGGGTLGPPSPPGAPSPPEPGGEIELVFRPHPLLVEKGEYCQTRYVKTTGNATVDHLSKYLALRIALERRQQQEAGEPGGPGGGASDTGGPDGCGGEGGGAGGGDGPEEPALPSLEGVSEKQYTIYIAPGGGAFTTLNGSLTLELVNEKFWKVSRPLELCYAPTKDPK
UniProt Q8TDP1: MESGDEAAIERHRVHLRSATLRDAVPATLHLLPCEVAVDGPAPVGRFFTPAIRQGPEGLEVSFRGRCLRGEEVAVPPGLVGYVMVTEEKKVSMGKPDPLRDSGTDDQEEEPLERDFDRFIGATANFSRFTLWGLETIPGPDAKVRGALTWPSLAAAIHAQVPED
UniProt Q5TBB1: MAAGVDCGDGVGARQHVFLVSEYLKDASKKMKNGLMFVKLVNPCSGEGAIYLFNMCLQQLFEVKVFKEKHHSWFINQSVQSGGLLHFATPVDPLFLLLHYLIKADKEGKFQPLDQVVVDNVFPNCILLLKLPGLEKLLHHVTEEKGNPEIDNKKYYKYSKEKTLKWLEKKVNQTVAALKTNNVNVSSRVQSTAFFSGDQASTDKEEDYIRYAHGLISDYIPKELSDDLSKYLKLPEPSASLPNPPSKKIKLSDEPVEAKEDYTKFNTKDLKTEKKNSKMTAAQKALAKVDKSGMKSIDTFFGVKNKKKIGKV
UniProt O75792: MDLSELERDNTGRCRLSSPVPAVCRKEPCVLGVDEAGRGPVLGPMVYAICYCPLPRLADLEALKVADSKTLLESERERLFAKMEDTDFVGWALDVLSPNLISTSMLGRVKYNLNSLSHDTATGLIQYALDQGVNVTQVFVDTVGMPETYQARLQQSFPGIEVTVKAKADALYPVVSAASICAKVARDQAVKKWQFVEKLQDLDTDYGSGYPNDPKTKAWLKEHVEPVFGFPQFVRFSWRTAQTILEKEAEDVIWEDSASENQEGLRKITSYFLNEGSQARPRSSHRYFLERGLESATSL
UniProt Q9H9A7: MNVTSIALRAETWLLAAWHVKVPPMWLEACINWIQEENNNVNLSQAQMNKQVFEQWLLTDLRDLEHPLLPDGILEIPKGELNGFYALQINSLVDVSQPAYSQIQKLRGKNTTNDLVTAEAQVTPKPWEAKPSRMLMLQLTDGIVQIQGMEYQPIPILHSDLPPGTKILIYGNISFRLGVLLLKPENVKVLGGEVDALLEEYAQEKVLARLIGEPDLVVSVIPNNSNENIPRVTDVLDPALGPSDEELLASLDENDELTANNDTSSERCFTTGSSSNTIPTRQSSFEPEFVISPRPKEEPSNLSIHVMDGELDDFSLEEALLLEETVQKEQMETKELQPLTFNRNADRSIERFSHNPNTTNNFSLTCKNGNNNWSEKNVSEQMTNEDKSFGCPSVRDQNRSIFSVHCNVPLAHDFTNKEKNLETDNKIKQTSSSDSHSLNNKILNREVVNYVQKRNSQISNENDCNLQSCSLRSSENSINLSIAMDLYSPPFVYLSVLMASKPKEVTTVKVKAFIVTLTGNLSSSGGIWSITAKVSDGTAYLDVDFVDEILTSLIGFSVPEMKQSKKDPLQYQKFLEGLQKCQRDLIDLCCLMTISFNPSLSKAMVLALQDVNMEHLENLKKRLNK
UniProt Q8WVD5: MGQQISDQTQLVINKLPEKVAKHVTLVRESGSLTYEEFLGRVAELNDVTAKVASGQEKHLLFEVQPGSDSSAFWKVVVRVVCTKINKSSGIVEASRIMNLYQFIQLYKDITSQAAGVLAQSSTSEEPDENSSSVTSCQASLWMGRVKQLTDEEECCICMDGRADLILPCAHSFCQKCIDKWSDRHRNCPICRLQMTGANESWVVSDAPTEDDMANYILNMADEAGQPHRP
UniProt Q96DB5: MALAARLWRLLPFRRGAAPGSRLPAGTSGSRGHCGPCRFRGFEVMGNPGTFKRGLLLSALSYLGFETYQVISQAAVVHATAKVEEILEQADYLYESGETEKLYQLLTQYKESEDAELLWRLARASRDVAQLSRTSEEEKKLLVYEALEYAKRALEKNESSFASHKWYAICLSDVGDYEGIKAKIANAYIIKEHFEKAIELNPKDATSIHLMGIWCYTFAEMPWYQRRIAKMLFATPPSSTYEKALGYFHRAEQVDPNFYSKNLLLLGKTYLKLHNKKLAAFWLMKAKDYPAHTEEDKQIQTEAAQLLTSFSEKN
UniProt O43353, whole entry, looked up: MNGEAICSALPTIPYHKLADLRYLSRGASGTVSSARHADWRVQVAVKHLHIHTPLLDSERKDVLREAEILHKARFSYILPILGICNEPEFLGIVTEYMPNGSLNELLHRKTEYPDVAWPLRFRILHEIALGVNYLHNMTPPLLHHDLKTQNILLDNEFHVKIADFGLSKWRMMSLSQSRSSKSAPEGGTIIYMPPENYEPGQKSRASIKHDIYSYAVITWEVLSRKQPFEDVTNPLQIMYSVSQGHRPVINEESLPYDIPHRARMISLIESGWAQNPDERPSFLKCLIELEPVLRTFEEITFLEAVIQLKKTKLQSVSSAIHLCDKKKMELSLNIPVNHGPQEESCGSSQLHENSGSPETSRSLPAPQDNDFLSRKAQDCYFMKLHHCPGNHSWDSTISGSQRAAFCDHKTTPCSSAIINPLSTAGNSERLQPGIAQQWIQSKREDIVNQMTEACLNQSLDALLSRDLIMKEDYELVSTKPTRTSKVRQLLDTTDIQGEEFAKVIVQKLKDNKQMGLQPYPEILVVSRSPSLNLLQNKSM
UniProt Q9H4A4: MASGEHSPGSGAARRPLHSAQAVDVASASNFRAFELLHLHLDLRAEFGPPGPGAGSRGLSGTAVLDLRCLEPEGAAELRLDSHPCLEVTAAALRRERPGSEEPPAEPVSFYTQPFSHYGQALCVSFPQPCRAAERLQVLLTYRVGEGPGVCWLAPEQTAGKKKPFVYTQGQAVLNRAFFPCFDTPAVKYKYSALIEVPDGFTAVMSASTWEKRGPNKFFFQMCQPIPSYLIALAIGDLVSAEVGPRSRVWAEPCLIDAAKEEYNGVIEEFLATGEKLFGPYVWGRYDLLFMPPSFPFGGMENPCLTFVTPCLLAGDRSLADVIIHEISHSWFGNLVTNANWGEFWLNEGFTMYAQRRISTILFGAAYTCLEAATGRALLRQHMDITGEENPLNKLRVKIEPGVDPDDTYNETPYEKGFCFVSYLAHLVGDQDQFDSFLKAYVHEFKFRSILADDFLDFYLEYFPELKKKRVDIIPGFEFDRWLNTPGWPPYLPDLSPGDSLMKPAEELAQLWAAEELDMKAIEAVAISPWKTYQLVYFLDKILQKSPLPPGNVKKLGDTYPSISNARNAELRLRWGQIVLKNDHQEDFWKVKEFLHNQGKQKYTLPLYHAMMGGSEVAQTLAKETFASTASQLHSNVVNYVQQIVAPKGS
UniProt P62745, whole entry, looked up: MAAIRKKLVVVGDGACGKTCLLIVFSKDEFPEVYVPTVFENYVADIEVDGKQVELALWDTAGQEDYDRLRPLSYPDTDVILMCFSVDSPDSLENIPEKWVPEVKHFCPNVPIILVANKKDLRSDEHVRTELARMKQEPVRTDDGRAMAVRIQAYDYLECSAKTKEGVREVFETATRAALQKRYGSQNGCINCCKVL
UniProt P10155: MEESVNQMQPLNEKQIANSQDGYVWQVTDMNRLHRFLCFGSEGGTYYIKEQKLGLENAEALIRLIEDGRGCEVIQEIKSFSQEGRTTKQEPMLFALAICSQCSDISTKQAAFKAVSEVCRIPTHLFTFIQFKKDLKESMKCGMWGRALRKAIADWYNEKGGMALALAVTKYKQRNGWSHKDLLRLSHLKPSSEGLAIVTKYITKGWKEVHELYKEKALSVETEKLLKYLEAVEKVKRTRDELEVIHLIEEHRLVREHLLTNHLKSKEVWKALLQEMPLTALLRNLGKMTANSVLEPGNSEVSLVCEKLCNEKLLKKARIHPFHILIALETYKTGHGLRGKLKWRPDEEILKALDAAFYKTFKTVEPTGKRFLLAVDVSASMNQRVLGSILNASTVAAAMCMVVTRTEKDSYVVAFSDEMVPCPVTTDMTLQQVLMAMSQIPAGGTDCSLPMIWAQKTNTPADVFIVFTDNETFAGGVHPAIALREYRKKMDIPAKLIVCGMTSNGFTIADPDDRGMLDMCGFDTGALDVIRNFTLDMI

How the values were obtained:
Assay in all cases: log2 fold change, soluble protein after heating vs DMSO (PISA); higher = thermal stabilisation; K562 lysate, 10 uM; active = over 0.2 and 3.5 SD of the protein, either way, in both replicates (recomputed)
erlotinib = compound: C#Cc1cccc(Nc2ncnc3cc(OCCOC)c(OCCOC)cc23)c1 [erlotinib]
How it was run: (§1)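 Following dounce homogenisation of K562 pellets in PBS pH 7.4 with 1 mM MgCl2, crude extract at 1 mg/mL protein was incubated for 30 min with 10 μM compound. Aliquots were then heated for 3 min over 48°C-58°C and pooled, NP-40 was added to 0.5% at 4°C, and soluble protein was recovered as the supernatant at 21,000xg for 90 min. Channel-sum-equalised TMTpro 16plex LC-MS/MS quantified this protein. Each value, from duplicates, is a log-two fold change in thermal stability relative to solvent controls.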

[1] = compound: C/C(=N\NC(=O)C1=CC(=CC=C1)S(=O)(=O)N2CCOCC2)/C3=C(C=CC(=C3)Cl)O
How it was run: as §1

[2] = compound: C1=CC(=CC=C1C2=NC3=C(N2)C=C(C=C3)C(=O)N)OC4=CC=C(C=C4)Cl
How it was run: as §1

[3] = compound: C1=CC2=C(C=CC(=C2)/C=C\3/C(=O)NC(=NCC4=CC=CS4)S3)N=C1
How it was run: as §1

[4] = compound: C1=CC2=NC=CN=C2C=C1/C=C/3\C(=O)NC(=O)S3
How it was run: as §1

[5] = compound: C1=CC=C(C=C1)C2=NC(=C(N2)C3=CC=NC=C3)C4=CC(=C(C=C4)Cl)O
How it was run: as §1

[6] = compound: C1=CC=C2C(=C1)C3=NNC4=CC=CC(=C43)C2=O
How it was run: as §1

[7] = compound: C1CCN(C1)C(=O)NC2=CC=CC(=C2)NC3=NC=C(C(=N3)NCCC4=CN=CN4)Br
How it was run: as §1

[8] = compound: C1CN(CCC1(CC2=CC=C(C=C2)Cl)N)C3=NC=NC4=C3C=CN4
How it was run: as §1

IRAK-1-4 Inhibitor I = compound: C1COCCN1CCN2C3=CC=CC=C3N=C2NC(=O)C4=CC(=CC=C4)[N+](=O)[O-] [IRAK-1-4 Inhibitor I]
How it was run: as §1

ibrutinib = compound: C=CC(=O)N1CCC[C@@H](n2nc(-c3ccc(Oc4ccccc4)cc3)c3c(N)ncnc32)C1 [ibrutinib]
How it was run: as §1

[9] = compound: CC(=O)c1cnc2ccc(-c3cc(Cl)c(O)c(Cl)c3)nc2c1N[C@H]1CC[C@H](CN(C)C)CC1
How it was run: as §1

ralimetinib = compound: CC(C)(C)Cn1c(N)nc2ccc(-c3[nH]c(C(C)(C)C)nc3-c3ccc(F)cc3)nc21 [ralimetinib]
How it was run: as §1

[10] = compound: CC(C)(O)CC(=O)NCCn1ccc2ncnc(Nc3ccc(Oc4cccc(C(F)(F)F)c4)c(Cl)c3)c21
How it was run: as §1

[11] = compound: CC(C)C1=C2N=C(C=C(N2N=C1)NCC3=CC=CC=C3)NCCCCCCN
How it was run: as §1

[12] = compound: CC1=C(C(CC(=O)N1)C2=CC=C(C=C2)C(F)(F)F)C(=O)NC3=C(C=C4C(=C3)C=NN4)F
How it was run: as §1

[13] = compound: CC1=C(C2=C(C=C1)C(=O)C3=CC=CC=C3N2CCCN)C
How it was run: as §1

[14] = compound: CC1=C(C=C(C=C1)NC(=O)C2=CC(=CC=C2)C(C)(C)C#N)NC3=CC4=C(C=C3)N=CN(C4=O)C
How it was run: as §1

[15] = compound: CC1=C(C=C(C=C1)NC(=O)C2=CC(=CC=C2)N(C)C)NC(=O)C3=CC=C(C=C3)O
How it was run: as §1

[16] = compound: CC1=CC=C(C=C1)SC2=C3C=C(SC3=CN=C2)C(=O)N
How it was run: as §1

Measured: log2 fold change

RING1 (UniProt Q06587)
inactive: erlotinib -0.03 | [1] -0.057 | [2] -0.011 | [3] 0.065 | [4] 0.058 | [5] -0.049 | [6] -0.047 | [7] -0.005 | [8] 0.001 | IRAK-1-4 Inhibitor I 0.052 | ibrutinib 0 | [9] -0.018 | ralimetinib 0.015 | [10] 0.003 | [11] 0.022 | [12] 0.012 | [13] -0.041 | [14] 0 | [15] -0.012 | [16] 0.004

RNASEH2C (UniProt Q8TDP1)
inactive: erlotinib 0.011 | [1] -0.009 | [2] 0 | [3] -0.009 | [4] 0.025 | [5] -0.004 | [6] 0.007 | [7] 0.016 | [8] -0.009 | IRAK-1-4 Inhibitor I -0.053 | ibrutinib 0.015 | [9] 0.018 | ralimetinib 0.072 | [10] 0.056 | [11] -0.062 | [12] -0.038 | [13] 0.023 | [14] 0.007 | [15] 0.011 | [16] 0.008

RNASEH2B (UniProt Q5TBB1)
inactive: erlotinib -0.01 | [1] 0.006 | [2] -0.024 | [3] 0.019 | [4] -0.011 | [5] 0.009 | [6] 0.024 | [7] -0.01 | [8] -0.041 | IRAK-1-4 Inhibitor I -0.003 | ibrutinib -0.001 | [9] -0.032 | ralimetinib 0.026 | [10] 0 | [11] 0.031 | [12] -0.025 | [13] 0.024 | [14] 0.005 | [15] 0.025 | [16] 0.009

RNASEH2A (UniProt O75792)
inactive: erlotinib 0.026 | [1] 0.014 | [2] 0.005 | [3] -0.028 | [4] -0.011 | [5] 0.017 | [6] -0.005 | [7] -0.006 | [8] -0.032 | IRAK-1-4 Inhibitor I -0.006 | ibrutinib 0.021 | [9] 0.031 | ralimetinib -0.017 | [10] -0.002 | [11] 0.012 | [12] 0.026 | [13] 0.031 | [14] 0.015 | [15] -0.032 | [16] 0.015

RPL27A (UniProt P46776)
inactive: erlotinib -0.06 | [1] -0.045 | [2] 0.014 | [3] 0.003 | [4] -0.065 | [5] 0.002 | [6] -0.001 | [7] -0.014 | [8] -0.012 | IRAK-1-4 Inhibitor I 0.013 | ibrutinib -0.03 | [9] -0.014 | ralimetinib -0.025 | [10] -0.026 | [11] 0.012 | [12] -0.038 | [13] -0.047 | [14] 0.003 | [15] -0.013 | [16] 0.031

RPL11 (UniProt P62913)
inactive: erlotinib 0.005 | [1] -0.005 | [2] 0.056 | [3] 0.007 | [4] 0.002 | [5] 0 | [6] -0.058 | [7] -0.015 | [8] -0.008 | IRAK-1-4 Inhibitor I 0.012 | ibrutinib -0.085 | [9] -0.017 | ralimetinib -0.037 | [10] -0.045 | [11] 0 | [12] -0.027 | [13] 0 | [14] 0.015 | [15] 0.033 | [16] -0.014

RMI1 (UniProt Q9H9A7)
inactive: erlotinib -0.048 | [1] -0.082 | [2] 0.082 | [3] 0.069 | [4] 0.034 | [5] 0.027 | [6] -0.116 | [7] 0.004 | [8] -0.029 | IRAK-1-4 Inhibitor I 0.023 | ibrutinib -0.128 | [9] -0.059 | ralimetinib 0.106 | [10] -0.096 | [11] -0.011 | [12] 0.038 | [13] -0.009 | [14] -0.023 | [15] 0.049 | [16] -0.053

RNF141 (UniProt Q8WVD5)
inactive: erlotinib 0.052 | [1] -0.1 | [2] 0.052 | [3] 0.092 | [4] -0.013 | [5] 0.014 | [6] 0.03 | [7] -0.095 | [8] -0.023 | IRAK-1-4 Inhibitor I 0.019 | ibrutinib 0.131 | [9] -0.052 | ralimetinib 0.037 | [10] 0.004 | [11] 0 | [12] 0.044 | [13] 0 | [14] 0.019 | [15] -0.005 | [16] -0.051

Reprinted from the results shown (2 entries):
RMI1 (UniProt Q9H9A7)
inactive: erlotinib -0.048 | [1] -0.082 | [2] 0.082 | [3] 0.069 | [4] 0.034 | [5] 0.027 | [6] -0.116 | [7] 0.004 | [8] -0.029 | IRAK-1-4 Inhibitor I 0.023 | ibrutinib -0.128 | [9] -0.059 | ralimetinib 0.106 | [10] -0.096 | [11] -0.011 | [12] 0.038 | [13] -0.009 | [14] -0.023 | [15] 0.049 | [16] -0.053

RNF141 (UniProt Q8WVD5)
inactive: erlotinib 0.052 | [1] -0.1 | [2] 0.052 | [3] 0.092 | [4] -0.013 | [5] 0.014 | [6] 0.03 | [7] -0.095 | [8] -0.023 | IRAK-1-4 Inhibitor I 0.019 | ibrutinib 0.131 | [9] -0.052 | ralimetinib 0.037 | [10] 0.004 | [11] 0 | [12] 0.044 | [13] 0 | [14] 0.019 | [15] -0.005 | [16] -0.051

(further entries)

RPL29 (UniProt P47914)
inactive: erlotinib 0.002 | [1] -0.08 | [2] -0.033 | [3] -0.016 | [4] -0.023 | [5] 0.041 | [6] 0.024 | [7] 0.043 | [8] -0.009 | IRAK-1-4 Inhibitor I 0.012 | ibrutinib 0.011 | [9] -0.03 | ralimetinib 0.008 | [10] 0.041 | [11] -0.004 | [12] -0.012 | [13] 0.125 | [14] -0.005 | [15] -0.082 | [16] 0.001

RMDN1 (UniProt Q96DB5)
inactive: erlotinib -0.004 | [1] 0.041 | [2] -0.004 | [3] -0.029 | [4] 0.02 | [5] 0.031 | [6] -0.031 | [7] 0.026 | [8] 0.099 | IRAK-1-4 Inhibitor I -0.002 | ibrutinib 0.018 | [9] 0.001 | ralimetinib 0.013 | [10] -0.021 | [11] -0.01 | [12] -0.025 | [13] 0.034 | [14] -0.002 | [15] -0.006 | [16] 0.001

RPL27 (UniProt P61353)
inactive: erlotinib 0.002 | [1] -0.02 | [2] -0.04 | [3] -0.033 | [4] 0.011 | [5] 0.011 | [6] 0.03 | [7] 0.052 | [8] -0.014 | IRAK-1-4 Inhibitor I -0.014 | ibrutinib 0.037 | [9] -0.014 | ralimetinib -0.025 | [10] -0.018 | [11] -0.01 | [12] -0.067 | [13] -0.051 | [14] 0 | [15] -0.01 | [16] 0.014

RIPK2 (UniProt O43353)
inactive: erlotinib 0.02 | [1] 0.321 | [2] 0.012 | [3] -0.02 | [4] -0.025 | [5] 0.048 | [6] -0.007 | [7] -0.004 | [8] 0.008 | IRAK-1-4 Inhibitor I 0.002 | ibrutinib 0.182 | [9] -0.045 | ralimetinib 0.084 | [10] -0.011 | [11] 0.007 | [12] 0.024 | [13] -0.074 | [14] 0.071 | [15] 0.022 | [16] 0.035

RNPEP (UniProt Q9H4A4)
inactive: erlotinib 0.03 | [1] 0.002 | [2] -0.002 | [3] 0.009 | [4] 0.004 | [5] -0.011 | [6] -0.01 | [7] 0.004 | [8] 0 | IRAK-1-4 Inhibitor I 0.007 | ibrutinib 0.002 | [9] 0.001 | ralimetinib -0.01 | [10] -0.002 | [11] -0.002 | [12] 0.015 | [13] 0.022 | [14] -0.006 | [15] -0.004 | [16] -0.003

RHOB (UniProt P62745)
inactive: erlotinib -0.006 | [1] -0.044 | [2] -0.017 | [3] 0.02 | [4] 0.176 | [5] 0.041 | [6] -0.013 | [7] 0.017 | [8] 0.047 | IRAK-1-4 Inhibitor I 0.01 | ibrutinib -0.095 | [9] 0.041 | ralimetinib -0.033 | [10] 0.001 | [11] -0.037 | [12] -0.021 | [13] -0.009 | [14] 0.087 | [15] -0.026 | [16] -0.021

RO60 (UniProt P10155)
inactive: erlotinib 0.015 | [1] -0.033 | [2] 0.026 | [3] 0.017 | [4] -0.052 | [5] 0.016 | [6] 0.028 | [7] 0 | [8] -0.022 | IRAK-1-4 Inhibitor I -0.01 | ibrutinib 0.043 | [9] 0.002 | ralimetinib 0.022 | [10] 0.001 | [11] 0.011 | [12] -0.011 | [13] 0.013 | [14] -0.018 | [15] -0.014 | [16] 0.001

RPL30 (UniProt P62888)
inactive: erlotinib -0.003 | [1] 0 | [2] -0.032 | [3] 0.021 | [4] -0.001 | [5] 0.037 | [6] 0.053 | [7] 0.025 | [8] -0.016 | IRAK-1-4 Inhibitor I 0.023 | ibrutinib 0.013 | [9] -0.017 | ralimetinib 0.004 | [10] 0 | [11] -0.006 | [12] 0.023 | [13] -0.026 | [14] -0.014 | [15] -0.021 | [16] 0.015
